A short description of the data set: Boc solid-phase peptide synthesis; Benzylhydrylamine-polystyrene resin; diisopropylcarbodiimide. The following applies: whole synthesis.

In turn, “H2 -c[Cys-Asn-Phe-Phe-D-Trp-Lys-Thr-Phe-Cys]-NH2” returned an isolated mass (scale 0.25 mmole) of 21 mg. Under “scale 0.5 mmole”, “H2 -c[Cys-Phe-Phe-D-Trp-Lys-Thr-Phe-Cys] -NH2 (WKTFC; Cys-Phe-Phe-D- N-terminal; cyclic; C-terminal amide; printed: Trp-Lys-Thr-Phe-Cys)” showed an isolated mass of 95 mg.

The values above are taken from US6001801A (Biomeasure, Inc., priority 1998, dated 1999).
